Laboratory results published in PMC12663160.
No constants are given. Whether binding was seen depends on the method and setting. Binding seen in cells or lysates may run through a third protein. These calls come from enrichment with a bait or labelling near it, and not all partners need be listed. Values belong to the molecule of their own block, whether it stands above or below them.

By UniProt entry, the sequences of proteins in these tests, tags left out. Residues count along the entry.
UniProt P01375, residues 77-233: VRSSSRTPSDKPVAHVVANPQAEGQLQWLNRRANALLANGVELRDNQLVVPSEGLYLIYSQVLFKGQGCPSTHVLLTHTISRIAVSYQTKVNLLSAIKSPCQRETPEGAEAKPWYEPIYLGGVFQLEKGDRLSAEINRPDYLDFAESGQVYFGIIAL
UniProt Q9UHD2: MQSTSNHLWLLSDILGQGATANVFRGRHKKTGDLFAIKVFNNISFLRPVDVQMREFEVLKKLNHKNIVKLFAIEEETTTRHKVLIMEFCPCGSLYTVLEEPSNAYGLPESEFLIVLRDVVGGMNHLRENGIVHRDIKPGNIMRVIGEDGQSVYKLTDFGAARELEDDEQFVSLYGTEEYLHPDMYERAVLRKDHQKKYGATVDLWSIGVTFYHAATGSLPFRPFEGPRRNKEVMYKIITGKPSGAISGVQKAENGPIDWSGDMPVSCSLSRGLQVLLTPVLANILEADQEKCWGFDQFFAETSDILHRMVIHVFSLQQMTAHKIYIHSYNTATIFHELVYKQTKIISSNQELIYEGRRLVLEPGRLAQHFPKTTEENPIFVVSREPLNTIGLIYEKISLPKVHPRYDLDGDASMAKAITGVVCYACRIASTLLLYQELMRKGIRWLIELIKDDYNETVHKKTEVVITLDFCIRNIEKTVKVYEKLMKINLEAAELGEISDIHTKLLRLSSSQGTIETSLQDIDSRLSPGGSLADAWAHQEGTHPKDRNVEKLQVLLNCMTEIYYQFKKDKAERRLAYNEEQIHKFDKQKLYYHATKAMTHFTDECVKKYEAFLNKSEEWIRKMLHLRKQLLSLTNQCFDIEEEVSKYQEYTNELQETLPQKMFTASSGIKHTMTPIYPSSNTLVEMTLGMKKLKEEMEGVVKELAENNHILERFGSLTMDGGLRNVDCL

Biological target: biotinylated TNF (UniProt P01375)
Assay: affinity purification with mass spectrometry; BLM or D10 melanoma cells incubated with 100 ng/mL biotinylated TNF for 10 min, lysed (30 mM Tris-HCl pH 7.4, 120 mM NaCl, 2 mM EDTA, 2 mM KCl, 1% Triton X-100), streptavidin magnetic beads 1 h at 4 °C, LC-MS (DDA and SRM); unlabeled TNF as negative control; cells sgCtrl, sgTRAF2, sgRNF31 or sgTBK1+sgIKKε, with or without Birinapant or HOPIN-8; only the target purified

- binding: binds
Molecule: TBK1 (from UniProt Q9UHD2 1-729)

- binding: binds
B1: IKKε (protein, UniProt Q14164 1-716)
chain: MQSTANYLWHTDDLLGQGATASVYKARNKKSGELVAVKVFNTTSYLRPREVQVREFEVLRKLNHQNIVKLFAVEETGGSRQKVLVMEYCSSGSLLSVLESPENAFGLPEDEFLVVLRCVVAGMNHLRENGIVHRDIKPGNIMRLVGEEGQSIYKLTDFGAARELDDDEKFVSVYGTEEYLHPDMYERAVLRKPQQKAFGVTVDLWSIGVTLYHAATGSLPFIPFGGPRRNKEIMYRITTEKPAGAIAGAQRRENGPLEWSYTLPITCQLSLGLQSQLVPILANILEVEQAKCWGFDQFFAETSDILQRVVVHVFSLSQAVLHHIYIHAHNTIAIFQEAVHKQTSVAPRHQEYLFEGHLCVLEPSVSAQHIAHTTASSPLTLFSTAIPKGLAFRDPALDVPKFVPKVDLQADYNTAKGVLGAGYQALRLARALLDGQELMFRGLHWVMEVLQATCRRTLEVARTSLLYLSSSLGTERFSSVAGTPEIQELKAAAELRSRLRTLAEVLSRCSQNITETQESLSSLNRELVKSRDQVHEDRSIQQIQCCLDKMNFIYKQFKKSRMRPGLGYNEEQIHKLDKVNFSHLAKRLLQVFQEECVQKYQASLVTHGKRMRVVHETRNHLRLVGCSVAACNTEAQGVQESLSKLLEELSHQLLQDRAKGAQASPPPIAPYPSPTRKDLLLHMQELCEGMKLLASDLLDNNRIIERLNRVPAPPDV

- binding: binds
B2: TAK1 (protein, UniProt O43318 1-606)
chain: MSTASAASSSSSSSAGEMIEAPSQVLNFEEIDYKEIEVEEVVGRGAFGVVCKAKWRAKDVAIKQIESESERKAFIVELRQLSRVNHPNIVKLYGACLNPVCLVMEYAEGGSLYNVLHGAEPLPYYTAAHAMSWCLQCSQGVAYLHSMQPKALIHRDLKPPNLLLVAGGTVLKICDFGTACDIQTHMTNNKGSAAWMAPEVFEGSNYSEKCDVFSWGIILWEVITRRKPFDEIGGPAFRIMWAVHNGTRPPLIKNLPKPIESLMTRCWSKDPSQRPSMEEIVKIMTHLMRYFPGADEPLQYPCQYSDEGQSNSATSTGSFMDIASTNTSNKSDTNMEQVPATNDTIKRLESKLLKNQAKQQSESGRLSLGASRGSSVESLPPTSEGKRMSADMSEIEARIAATTAYSKPKRGHRKTASFGNILDVPEIVISGNGQPRRRSIQDLTVTGTEPGQVSSRSSSPSVRMITTSGPTSEKPTRSHPWTPDDSTDTNGSDNSIPMAYLTLDHQLQPLAPCPNSKESMAVFEQHCKMAQEYMKVQTEIALLLQRKQELVAELDQDEKDQQNTSRLVQEHKKLLDENKSLSTYYQQCKKQLEVIRSQQQKRQGTS
